# Out of some 360,000 compounds screened, about 7,500 (2.1%) were called active. The inconclusive results got no clear call from the source; some entries with a clear call stand among them for comparison. Calls come from the whole dose curve; as a rule, active = well fitted inhibition curve with a large enough effect; inconclusive = small, poorly fitted or top-dose-only effect, or effect the other way; inactive = flat fitted curve, though single readings scatter. Potencies beside an inconclusive call are fits to weak or partial responses and may not hold up.
# Test: Nrf2 qHTS screen for inhibitors; note: nearly all actives have a fitted effect of over 60% in size
# Conditions: A549 ARE-Fluc reporter, luciferase luminescence, 18-24 h; series mostly up to 46 µM
# Summary of the method: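 A549 ARE_Fluc cells (5000/well, 5% FBS OPTI-MEM) pre-incubated 2 h, then treated with compounds 18-24 h at 37C/5% CO2 in concentration-response. CellTiter-Fluor viability read first; BugLite luciferase luminescence after 15 min at room temperature gives Nrf2 activity.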
# Potency is the fitted concentration of half-maximal effect.
row,SMILES,Potency
1,Fc1ccc(-n2nnc(-c3ccccc3Br)n2)cc1,inactive
2,CC(=O)c1ccc(NC(=O)C2C3C=CC(C3=C(c3ccccc3)c3ccccc3)C2C(=O)O)cc1 (stereo not drawn),"inconclusive: 20.6 µM [falling, single point]"
3,Oc1ccccc1-c1cc(-c2cccc(F)c2)n[nH]1,"inconclusive: 20.6 µM [activator, partial curve]"
4,O=C(NNC(=S)NC(=O)c1cccnc1)c1ccc(Cl)cc1,"inconclusive: 4.11 µM [falling, single point]"
5,Cc1cc(C(=O)COC(=O)c2nn(C)c(=O)c3ccccc23)c(C)n1C,inactive
6,COc1cc(NC(=O)c2ccccc2)ccc1NC(=O)c1cc2ccccc2o1,"inconclusive: 6.51 µM [falling, partial curve]"
7,CN(C)S(=O)(=O)c1ccc(NC(=O)CSc2n[nH]c(=O)n2C2CC2)cc1,"inconclusive: 9.2 µM [activator, partial curve, poor fit]"
8,CC(C)NC(=O)c1nc2ccccc2s1,"inconclusive: 0.116 µM [activator, full curve, poor fit]"
9,Cc1ccc(OS(=O)Nc2cccc3nccnc23)cc1 (stereo not drawn),"inconclusive: 13 µM [falling, partial curve, poor fit]"
10,O=C(NC(=S)NC1CCCCC1)c1ccc(Cl)cc1,"inconclusive: 5.8 µM [activator, full curve]"
11,Cc1ccc(NC(=O)Cn2nnc(-c3nc(-c4ccncc4)no3)c2N)cc1,inactive
12,CC(C)N(Cc1ccccc1)C(=S)Nc1ccc(OC(F)F)cc1,"inconclusive: 23.1 µM [falling, single point]"
13,CC(=O)c1c(C)[nH]c(C(=O)CN2CCN(S(=O)(=O)c3ccccc3)CC2)c1C,"inconclusive: 14.6 µM [falling, partial curve]"
14,COc1ccccc1NC(=O)c1ccc(SCC(=O)NCc2ccccc2Cl)c([N+](=O)[O-])c1,"inconclusive: 32.6 µM [falling, single point]"
15,FC(F)Oc1ccc(NC(=S)Nn2cnnc2)cc1,inactive
16,CCCOc1ccc(CNC(=O)C(CC)n2nc(C)c3sc4ccccc4c3c2=O)cc1 (stereo not drawn),"inconclusive: 13 µM [falling, partial curve, poor fit]"
17,COc1ccc(-c2cc3nc4n(c(=O)c3s2)CCC4)cc1,"inconclusive: 1.03 µM [activator, partial curve]"
18,Cc1cc2c(cc1C)/C(=N/NC(=O)c1ccccn1)CCC2,"inconclusive: 20.6 µM [activator, single point]"
19,Cc1ccc(C)c(C2NC(=O)c3ccccc3N2)c1 (stereo not drawn),"inconclusive: 4.61 µM [activator, full curve]"
20,COc1ccc(C(CNC(=O)c2cc3c(s2)CCC(C)C3)N2CCCC2)cc1 (stereo not drawn),"inconclusive: 29.1 µM [activator, single point]"
21,NNC(=O)CN1C(c2ccccc2)=Nc2ccc(Br)cc2C1c1ccccc1 (stereo not drawn),inactive
22,COc1cc(C)nc(N2CCCC(C(=O)Nc3cc(Cl)ccc3OC)C2)n1 (stereo not drawn),"inconclusive: 29.1 µM [falling, single point]"
23,Cc1c(OCc2ccc([N+](=O)[O-])cc2)ccc2c3c(c(=O)oc12)CCC3,"inconclusive: 0.82 µM [activator, full curve, poor fit]"

# Molecules from the list above that have an NH in an aromatic ring, in the order listed:
row,SMILES,Potency
3,Oc1ccccc1-c1cc(-c2cccc(F)c2)n[nH]1,"inconclusive: 20.6 µM [activator, partial curve]"
7,CN(C)S(=O)(=O)c1ccc(NC(=O)CSc2n[nH]c(=O)n2C2CC2)cc1,"inconclusive: 9.2 µM [activator, partial curve, poor fit]"
13,CC(=O)c1c(C)[nH]c(C(=O)CN2CCN(S(=O)(=O)c3ccccc3)CC2)c1C,"inconclusive: 14.6 µM [falling, partial curve]"

# Going on with the list.

row,SMILES,Potency
1,O=C(OCc1nc(-c2ccccc2)oc1COC(=O)c1ccco1)c1ccco1,inactive
2,CCCOc1ccc(N/C=C/C(=O)C(C)(C)C)cc1,"inconclusive: 6.51 µM [falling, partial curve, poor fit]"
3,CNC(=O)COc1coc(CN2CCN(c3ccccc3)CC2)cc1=O,"inconclusive: 0.0041 µM [activator, full curve, poor fit]"
4,COc1cc(CCC(=O)Nc2c(C(=O)N3CCN(c4ccccc4OC)CC3)oc3ccccc23)on1,"inconclusive: 18.4 µM [falling, single point]"
5,COc1ccccc1CNC(=O)c1cc(-c2ccccc2)nn1CC1CC(c2cccc([N+](=O)[O-])c2)=NO1 (stereo not drawn),inactive
6,CCOC(=O)C1CCN(C(=O)C2CCN(C3=NS(=O)(=O)C(c4ccc(C)cc4)=C3CC)CC2)CC1,inactive
7,CCOc1ccc2nc(NC(=O)c3ccc(C)o3)sc2c1,"inconclusive: 1.64 µM [activator, full curve]"
8,Cc1ccc(CNC(=O)C2CCN(c3nc4ccccc4n(C)c3=O)CC2)cc1,inactive
9,O=C(Nc1ccccc1C(F)(F)F)c1cc2ccccc2o1,"inconclusive: 8.2 µM [activator, partial curve]"
10,CSc1ccc(S(=O)(=O)Nc2c(C)cccc2C)cc1,"inconclusive: 3.66 µM [falling, partial curve]"
11,Cc1ccc(-c2nnc(SCc3ccccc3C#N)o2)cc1,"inconclusive: 25.9 µM [activator, partial curve, poor fit]"
12,COc1cc(S(=O)(=O)N2CCN(c3ccc(F)cc3)CC2)ccc1Cl,"inconclusive: 14.6 µM [falling, partial curve]"
13,COc1cccc(-c2nc(CS(=O)(=O)CC(=O)NCc3ccc(C)cc3)c(C)o2)c1,"inconclusive: 29.1 µM [falling, single point]"
14,Cc1ccc2c(c1)NC(c1cccnc1)=NC(c1ccc(F)cc1)=N2,inactive
15,Nc1nonc1-n1nnc(C(=O)N/N=C/c2ccc(OCc3ccccc3F)cc2)c1CNc1ccccc1,inactive
16,CC(C)(C)n1[nH]c2c3c(ccc2c1=O)C(=O)c1ccccc1C3=O,"inconclusive: 0.731 µM [falling, full curve]"
17,O=C1COc2ccc(C(=O)CSc3ccc(Br)cc3)cc2N1,"inconclusive: 29.1 µM [falling, single point]"
18,S=C(NCc1ccccn1)NN=Cc1ccccn1,active: 14.6 µM
19,CC(=O)c1ccc(NC(=O)CSCCO)cc1,"inconclusive: 1.84 µM [activator, full curve, poor fit]"
20,COc1ccc(N(CC(=O)Nc2cccc(C)c2)S(=O)(=O)c2c(C)noc2C)cc1,"inconclusive: 5.8 µM [falling, single point]"
21,COc1ccc(Cl)cc1NC(=O)C1Cc2cc(S(=O)(=O)N3CCCC3)ccc2N1C(C)=O (stereo not drawn),"inconclusive: 23.1 µM [falling, partial curve, poor fit]"
22,COCCN(CCOC)C(=O)c1ccc(CSc2nc3ccccc3s2)cc1,active: 13 µM
23,CC(NC(=O)c1ccco1)C(=O)OC(C)C(=O)NCc1ccccc1 (stereo not drawn),"inconclusive: 32.6 µM [activator, single point]"

row,SMILES,Potency
1,N#Cc1c(NC(=O)c2cnccn2)sc2c1CCCC2,"inconclusive: 2.06 µM [activator, partial curve, poor fit]"
2,COc1ccc([N+](=O)[O-])cc1-c1nc2ccccc2nc1-c1ccccc1,"inconclusive: 29.1 µM [falling, single point]"
3,CCn1c(SCC(=O)Nc2nc3ccc(C)cc3s2)nc2c(c1=O)SC(C)C2 (stereo not drawn),active: 18.4 µM
4,NC(=O)c1ccc(N2CCN(S(=O)(=O)c3ccccc3)CC2)c([N+](=O)[O-])c1,"inconclusive: 1.3 µM [falling, full curve, poor fit]"
5,COc1ccc(C(=O)c2cn(Cc3ccc(F)cc3)c3ccc(C)cc3c2=O)cc1,"inconclusive: 29.1 µM [falling, single point]"
6,Cn1cc(C(=O)N/N=C/C(Br)=C\c2ccccc2)ccc1=O,"inconclusive: 6.51 µM [falling, partial curve, poor fit]"
7,CCC(=O)N1CCN(c2nc(-c3ccc(Cl)cc3)cs2)CC1,"inconclusive: 18.4 µM [falling, single point]"
8,Cc1ccc(OCCOC(=O)c2cc(S(=O)(=O)N3CCCCC3)ccc2N2CCOCC2)cc1,active: 11.6 µM
9,CC(=O)Nc1ccc(S(=O)(=O)N2CCN(C(=O)c3cccnc3)CC2)cc1,inactive
10,COc1ccc(C(=O)NCC(C)(C)SCc2c(C)cc(C)cc2C)cc1,"inconclusive: 29.1 µM [falling, single point]"
11,N#Cc1cccc(NC(=O)CSc2ccc3c4c(cccc24)C(=O)c2ccccc2-3)c1,"inconclusive: 29.1 µM [falling, single point]"
12,O=C(CC1C(=O)NCCN1Cc1ccc(F)c(F)c1)NCCn1cccn1 (stereo not drawn),inactive
13,CCN(CC)CCN(C(=O)c1cc2ccccc2cc1OC)c1nc2ccc(OC)cc2s1,"inconclusive: 23.1 µM [falling, single point]"
14,CCN(CC)C(=O)Sc1cccc2cccnc12,inactive
15,O=C(Cc1cccc2ccccc12)NCC(=O)Nc1ccccc1F,inactive
16,Cc1cc2ccccc2n2c(SCC(=O)Nc3ccc(S(=O)(=O)N4CCC(C)CC4)cc3)nnc12,"inconclusive: 13 µM [falling, partial curve]"
17,Cc1cccc(CCNC(=O)c2cc(S(=O)(=O)N3CCCC3)cn2C)c1,"inconclusive: 13 µM [falling, partial curve, poor fit]"
18,O=C(N/N=C/c1ccc[nH]1)c1cccc([N+](=O)[O-])c1,"inconclusive: 16.4 µM [falling, partial curve, poor fit]"
19,CCN1CCN(c2oc(COc3ccc(Cl)cc3)nc2C#N)CC1,inactive
20,NNC(=O)c1nn(-c2ccc(Cl)cc2)ccc1=O,"inconclusive: 4.61 µM [falling, full curve, poor fit]"
21,Cc1cccc(OCC(=O)OCc2cc(=O)n3nc(C4CCCCC4)sc3n2)c1,"inconclusive: 11.6 µM [activator, partial curve]"
22,COc1cc(/C=N/Nc2snc(SC)c2C#N)cc(OC)c1OC,active: 4.61 µM

# Reference: PubChem BioAssay AID504444 (National Center for Advancing Translational Sciences (NCATS), 2011)
